In test [1] the target is T1, GST-Apn1 (S. cerevisiae) (UniProt P22936).
T1 sequence: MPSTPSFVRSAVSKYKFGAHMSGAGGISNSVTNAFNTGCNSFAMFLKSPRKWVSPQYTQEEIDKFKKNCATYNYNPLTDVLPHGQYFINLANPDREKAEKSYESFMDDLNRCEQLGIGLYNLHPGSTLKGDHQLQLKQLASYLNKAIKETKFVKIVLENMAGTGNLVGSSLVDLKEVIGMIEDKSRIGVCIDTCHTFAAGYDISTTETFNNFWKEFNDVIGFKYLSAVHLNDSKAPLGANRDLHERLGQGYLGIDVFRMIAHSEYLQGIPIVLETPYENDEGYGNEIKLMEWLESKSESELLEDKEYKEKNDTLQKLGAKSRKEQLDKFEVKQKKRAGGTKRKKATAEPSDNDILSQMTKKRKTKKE
In words: pull-down; GST-CTD or GST-Apn1 bound from yeast extracts (cells untreated or treated with rapamycin 200 ng/ml for 2 h) to the GST affinity matrix and not eluted; 1 mg of a second extract with Rrd1-MYC or Yap8-MYC applied for 1 h at room temperature; washed with 20 bed volumes of PBS; Western blot with anti-MYC and anti-GST; only the target purified. In general terms: Immunoblotting shows a protein as a band on a membrane.

Amino acid sequences for entries named in this document (tags omitted).
UniProt P04050: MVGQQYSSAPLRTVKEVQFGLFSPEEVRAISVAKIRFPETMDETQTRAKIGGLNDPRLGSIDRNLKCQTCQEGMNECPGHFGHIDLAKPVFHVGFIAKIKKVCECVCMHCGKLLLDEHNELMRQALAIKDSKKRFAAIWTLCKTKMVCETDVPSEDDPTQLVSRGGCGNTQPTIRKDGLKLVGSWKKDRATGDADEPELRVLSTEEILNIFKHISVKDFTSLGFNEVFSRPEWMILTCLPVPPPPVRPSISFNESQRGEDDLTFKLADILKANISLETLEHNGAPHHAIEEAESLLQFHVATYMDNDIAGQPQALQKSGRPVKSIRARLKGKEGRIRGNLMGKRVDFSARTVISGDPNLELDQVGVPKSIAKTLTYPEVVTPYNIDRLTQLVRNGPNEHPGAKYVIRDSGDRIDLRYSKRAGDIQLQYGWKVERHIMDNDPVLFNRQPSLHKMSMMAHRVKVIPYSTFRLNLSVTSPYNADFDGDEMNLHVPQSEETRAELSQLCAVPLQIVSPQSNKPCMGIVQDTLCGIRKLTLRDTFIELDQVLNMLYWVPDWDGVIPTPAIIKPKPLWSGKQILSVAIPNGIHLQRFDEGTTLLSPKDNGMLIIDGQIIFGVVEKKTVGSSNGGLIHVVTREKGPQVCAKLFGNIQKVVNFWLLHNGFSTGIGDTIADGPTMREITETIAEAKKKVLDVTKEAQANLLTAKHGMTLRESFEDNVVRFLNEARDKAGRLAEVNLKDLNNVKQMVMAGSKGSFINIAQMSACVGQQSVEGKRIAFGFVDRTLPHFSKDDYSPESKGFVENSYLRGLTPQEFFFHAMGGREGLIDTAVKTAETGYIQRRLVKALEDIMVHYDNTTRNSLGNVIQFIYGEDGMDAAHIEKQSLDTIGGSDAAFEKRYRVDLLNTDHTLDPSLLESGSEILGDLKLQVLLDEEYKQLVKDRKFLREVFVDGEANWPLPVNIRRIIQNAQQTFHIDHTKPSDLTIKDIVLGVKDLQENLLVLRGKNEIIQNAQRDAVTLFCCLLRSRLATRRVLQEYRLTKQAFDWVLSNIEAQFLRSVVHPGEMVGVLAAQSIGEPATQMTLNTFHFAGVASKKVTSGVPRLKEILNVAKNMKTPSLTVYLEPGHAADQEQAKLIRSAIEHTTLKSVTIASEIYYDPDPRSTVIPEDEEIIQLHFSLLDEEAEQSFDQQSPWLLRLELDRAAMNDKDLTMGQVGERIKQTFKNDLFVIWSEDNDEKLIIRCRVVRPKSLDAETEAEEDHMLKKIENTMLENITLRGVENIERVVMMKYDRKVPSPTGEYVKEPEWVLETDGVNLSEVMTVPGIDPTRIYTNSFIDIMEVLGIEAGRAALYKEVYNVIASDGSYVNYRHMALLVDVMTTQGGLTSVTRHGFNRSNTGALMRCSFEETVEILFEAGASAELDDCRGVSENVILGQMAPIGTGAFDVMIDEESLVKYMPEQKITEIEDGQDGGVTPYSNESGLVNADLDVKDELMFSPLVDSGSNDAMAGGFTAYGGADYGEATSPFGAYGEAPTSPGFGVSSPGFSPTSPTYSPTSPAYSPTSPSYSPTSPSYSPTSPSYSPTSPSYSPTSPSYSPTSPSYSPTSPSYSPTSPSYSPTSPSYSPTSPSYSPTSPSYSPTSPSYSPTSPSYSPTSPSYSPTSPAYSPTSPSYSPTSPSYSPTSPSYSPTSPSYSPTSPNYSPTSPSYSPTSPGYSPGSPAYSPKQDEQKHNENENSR

Test [2] deals with Rpb1, the large subunit of RNA polymerase II (S. cerevisiae (endogenous in the yeast strains used)) (UniProt P04050). In words: co-IP; 8WG16 antibody (anti-Rpb1) covalently coupled to AminoLink matrix; total yeast extracts of cells expressing MYC- or GFP-tagged proteins, untreated or treated with rapamycin (200 ng/ml for 30 min); washed four times with 50 mM Tris-HCl pH 7.5, 150 mM NaCl, 0.1% NP40; Western blot with anti-MYC or anti-GFP.

No constants are given. Whether binding was seen depends on the method and setting. In cells and extracts the contact can be indirect. Where a sequence is shown, tags or fusion partners need not be part of it.

B1: Rrd1-MYC (protein, UniProt P40454 1-393)
chain: MSLDRVDWPHATFSTPVKRIFDTQTTLDFQSSLAIHRIKYHLHKYTTLISHCSDPDPHATASSIAMVNGLMGVLDKLAHLIDETPPLPGPRRYGNLACREWHHKLDERLPQWLQEMLPSEYHEVVPELQYYLGNSFGSSTRLDYGTGHELSFMATVAALDMLGMFPHMRGADVFLLFNKYYTIMRRLILTYTLEPAGSHGVWGLDDHFHLVYILGSSQWQLLDAQAPLQPREILDKSLVREYKDTNFYCQGINFINEVKMGPFEEHSPILYDIAVTVPRWSKVCKGLLKMYSVEVLKKFPVVQHFWFGTGFFPWVNIQNGTDLPVFEEKEEESIEQANAGSPGREQTSTRFPTSTSMPPPGVPPSGNNINYLLSHQNQSHRNQTSFSRDRLRR
Regarding B1, in test [1], the binding entry is “no binding”.

B2: Swe1-MYC (protein, UniProt P32944 1-819)
chain: MSSLDEDEEDFEMLDTENLQFMGKKMFGKQAGEDESDDFAIGGSTPTNKLKFYPYSNNKLTRSTGTLNLSLSNTALSEANSKFLGKIEEEEEEEEEGKDEESVDSRIKRWSPFHENESVTTPITKRSAEKTNSPISLKQWNQRWFPKNDARTENTSSSSSYSVAKPNQSAFTSSGLVSKMSMDTSLYPAKLRIPETPVKKSPLVEGRDHKHVHLSSSKNASSSLSVSPLNFVEDNNLQEDLLFSDSPSSKALPSIHVPTIDSSPLSEAKYHAHDRHNNQTNILSPTNSLVTNSSPQTLHSNKFKKIKRARNSVILKNRELTNSLQQFKDDLYGTDENFPPPIIISSHHSTRKNPQPYQFRGRYDNDTDEEISTPTRRKSIIGATSQTHRESRPLSLSSAIVTNTTSAETHSISSTDSSPLNSKRRLISSNKLSANPDSHLFEKFTNVHSIGKGQFSTVYQVTFAQTNKKYAIKAIKPNKYNSLKRILLEIKILNEVTNQITMDQEGKEYIIDYISSWKFQNSYYIMTELCENGNLDGFLQEQVIAKKKRLEDWRIWKIIVELSLALRFIHDSCHIVHLDLKPANVMITFEGNLKLGDFGMATHLPLEDKSFENEGDREYIAPEIISDCTYDYKADIFSLGLMIVEIAANVVLPDNGNAWHKLRSGDLSDAGRLSSTDIHSESLFSDITKVDTNDLFDFERDNISGNSNNAGTSTVHNNSNINNPNMNNGNDNNNVNTAATKNRLILHKSSKIPAWVPKFLIDGESLERIVRWMIEPNYERRPTANQILQTEECLYVEMTRNAGAIIQEDDFGPKPKFFI
Turning to B2, the binding result in test [2] is on record as “no binding”.

For the origin of these results see PMC3019149.
